Experimental data taken from patent US5912230A, “Anti-fungal and anti-bacterial histatin-based peptides” (priority 1998, dated 1999).
Part of at least one peptide drawing is inferred or uncertain, most often the ends. Some entries repeat one wording, which the source may state once for all of them. Some entries share one result that the patent states for a list of compounds. Where a SMILES comes first, the peptide text is derived from it. Where no end group is shown, it is not given here. The star is where a group is joined. X1 = C[C@H](NC(N)=O)C(=O)*

Columns and labels:
[1] = tested on: Pseudomonas aeruginosa ATCC Accession Number 27853; test: bacterial cell killing assay (anti-bacterial activity of peptide 113 variants); assay type: cell-based
[2] = tested on: C. albicans blastoconidia
Source text: C. albicans is a dimorphic yeast. It can exist in a yeast or blastoconidial form, which upon germination develops into the hyphal or germinated form. While the germinated form is considered to be more invasive, most of the C. albicans isolates harvested from the oral cavities of healthy individuals appear to be in the blastoconidial form. (Arendorf, T. M. et al. (1980), Arch. Oral Biol. 25:1-10; Gow, N.A.R. et al. (1987), Criti. Rev. Microbiol. 15:73-78; Odds, F. C. (1988), Candida and Candidosis, 2nd ed., Bailliere Tindall, London, England). Anti-fungal activity of synthetic histatin 5, histatin-based peptide 113, peptides based on portions of the amino acid sequences of histatin-based peptide 113 and peptides derived from histatin-based peptide 113 with specified amino acid substitutions was measured in assays designed to test the effectiveness of the peptides against the blastoconidia form of Candida (Table 1). These assays, which measure killing of blastoconidia of C. albicans, are described in Xu et al., which is herein incorporated by reference. (Xu, T. et al. (1991), Infect. Immun. 59(8):2549-2554).
A well-described strain of C. albicans was used in the bioassay. This strain, ATCC 44505, was originally isolated from the human oral cavity. Cultures were stored at 4° C. on Sabouraud dextrose agar plates (Difco Laboratories, Detroit, Mich.) until use. Stationary phase growth cells were obtained following growth at 30° C. for 18 h on Sabouraud dextrose agar plates. Colonies were harvested and suspended in 10 mM potassium phosphate buffer (PPB), pH 7.4.
To initiate log phase growth, an aliquot of stock C. albicans was suspended in Sabouraud dextrose broth (Difco) and incubated at 30° C. in a shaking water bath. The growth phase was determined by taking aliquots of the culture at one hour intervals to monitor the optical density (O.D.) at 560 nm. […] Log phase cells were harvested and utilized in the blastoconidia killing assay in a manner identical to that described for stationary phase cells. A final concentration of 10^5 cells/ml (either stationary or log phase fungus) was used in all assays.
The standard suspension buffer utilized in the blastospore killing assay was 0.01M PPB, pH 7.4. An alternate suspension buffer, N-2-hydroxyethylpiperazine-N'-2-ethanesulfonic acids (HEPES; Sigma Chemical Co., St. Louis, Mo.), pH 7.4, can also be utilized.
a. For the killing of blastoconidia assay, 50 μl aliquots of cells (2×10^5 cells/ml) diluted in suspension buffer were allowed to attach to a polystyrene 96-well micro-titer plate (COSTAR, Cambridge, Mass.) for 15 min at room temperature, and then incubated with an equal volume of a histatin or histatin peptide in suspension buffer for 1 h at 37° C. Controls were carried out in the absence of the histatin or histatin peptide. After incubation, wells were washed three times by centrifugation at 1,000 xg for 5 min and covered with aliquots of molten Sabouraud dextrose broth (Difco) containing 2% agarose (Sigma) at 45° C. The plate was then incubated at 30° C. for 8 h. Under such conditions, live cells will divide and begin to form colonies, while dead cells will remain as single cells. To determine the percentage of blastoconidia killed, a total of 100 single cells and/or colonies were counted under a Nikon inverted microscope at 400× magnification and the extent of killing was calculated using the formula: [1-(number of colonies in treated sample)/(number of colonies in control)]×100%.
Data were obtained by calculating the mean and standard deviation from triplicate assays.

[3] = tested on: Porphyromonas gingivalis strain A7A1-28; test: microdilution bacteriostatic assay (P. gingivalis growth inhibition); assay type: cell-based
Procedure: (a) The bacteria used in one investigation, Porphyromonas gingivalis strain A7A1-28, is a typical key pathogenic organism associated with destructive periodontal diseases. The bacteria were multiply subcultured in Enriched Todd Hewitt broth (ETHB, Difco Lab., Detroit, Mich.). Microorganisms were stored in the same broths containing 20% and 50% glycerol, at -20° C. and -70° C., respectively. These served as stock cultures from which all preparations originated. […]
A modification of the typical microdilution assay (Rotilie et al., 1975) for the determination of minimal inhibitory concentration (MIC) of antimicrobial agents was utilized to investigate the bacteriostatic activity of the peptides. […] The modification introduced here was based on the spectrophotometric reading of the microtiter plate after incubation.
Microorganisms from cultures maintained in the aforementioned plates were inoculated into 5 ml of the above-mentioned broths and cultured overnight at 37° C. under strictly anaerobic conditions with continuous agitation on a minishaker (IKA-Labortechnik, Staufen i. Br., Germany). […] The optical density of the wells of the microtiter plate was determined using a microplate reader set at 550 nm and the plate was then incubated under strictly anaerobic conditions for 24 hours. […] The biologic activity was calculated according to the formula: […]

C[C@H](NC(N)=O)C(=O)N[C@@H](CCCCN)C(=O)N[C@@H](CCCNC(=N)N)C(=O)N[C@@H](Cc1c[nH]cn1)C(=O)N[C@@H](Cc1c[nH]cn1)C(=O)NCC(=O)N[C@@H](Cc1ccc(O)cc1)C(=O)N[C@@H](CCCCN)C(=O)N[C@@H](CCCNC(=N)N)C(=O)N[C@@H](CCCCN)C(=O)N[C@@H](Cc1ccccc1)C(=O)N[C@@H](Cc1c[nH]cn1)C(=O)O (X1-KRHHGYKRKFH-OH)
anti-bacterial activity, in words [1]: exhibit anti-fungal and anti-bacterial activity
anti-fungal (fungicidal) activity, in words [2]: exhibit anti-fungal and anti-bacterial activity

C[C@H](NC(=O)[C@H](Cc1c[nH]cn1)NC(=O)[C@H](CO)NC(=O)[C@@H](N)CC(=O)O)C(=O)N[C@@H](CCCCN)C(=O)N[C@@H](CCCNC(=N)N)C(=O)N[C@@H](Cc1c[nH]cn1)C(=O)N[C@@H](Cc1c[nH]cn1)C(=O)NCC(=O)N[C@@H](Cc1ccc(O)cc1)C(=O)N[C@@H](CCCCN)C(=O)N[C@@H](CCCNC(=N)N)C(=O)N[C@@H](CCCCN)C(=O)N[C@@H](Cc1ccccc1)C(=O)N[C@@H](Cc1c[nH]cn1)C(=O)N[C@@H](CCC(=O)O)C(=O)N[C@@H](CCCCN)C(=O)N[C@@H](Cc1c[nH]cn1)C(=O)N[C@@H](Cc1c[nH]cn1)C(=O)N[C@@H](CO)C(=O)N[C@@H](Cc1c[nH]cn1)C(=O)N[C@@H](CCCNC(=N)N)C(=O)NCC(=O)N[C@@H](Cc1ccc(O)cc1)C(=O)O [SynHis5, reference compound]
P. gingivalis: % increase in time to reach mid logphase growth (0.2 OD) ([3]; 2 mM dose): 88.7%

AKQHHGYKQKFH [peptide 113-Q3.9]
anti-bacterial activity, in words [1]: exhibit anti-fungal and anti-bacterial activity
anti-fungal (fungicidal) activity, in words [2]: exhibit anti-fungal and anti-bacterial activity

AKRFFGYKRKFF [peptide 113-F4.5.12]
anti-bacterial activity, in words [1]: exhibit anti-fungal and anti-bacterial activity
anti-fungal (fungicidal) activity, in words [2]: exhibit anti-fungal and anti-bacterial activity

AKRFFGYKRKFH [peptide 113-F4.5]
anti-bacterial activity, in words [1]: exhibit anti-fungal and anti-bacterial activity
anti-fungal (fungicidal) activity, in words [2]: exhibit anti-fungal and anti-bacterial activity

AKRFHGYKRKFH [peptide 113-F4]
anti-bacterial activity, in words [1]: exhibit anti-fungal and anti-bacterial activity
anti-fungal (fungicidal) activity, in words [2]: exhibit anti-fungal and anti-bacterial activity

AKRHFGYKRKFH [peptide 113-F5]
anti-bacterial activity, in words [1]: exhibit anti-fungal and anti-bacterial activity
anti-fungal (fungicidal) activity, in words [2]: exhibit anti-fungal and anti-bacterial activity

AKRHHGYFRKFH [peptide 113-F8]
anti-bacterial activity, in words [1]: exhibit anti-fungal and anti-bacterial activity
anti-fungal (fungicidal) activity, in words [2]: exhibit anti-fungal and anti-bacterial activity

AKRHHGYHRKFH [peptide 113-H8]
anti-bacterial activity, in words [1]: exhibit anti-fungal and anti-bacterial activity
anti-fungal (fungicidal) activity, in words [2]: exhibit anti-fungal and anti-bacterial activity

AKRHHGYKR [peptide 120]
anti-fungal (fungicidal) activity, in words [2]: demonstrable fungicidal activity

AKRHHGYKRK [peptide 119]
anti-fungal (fungicidal) activity, in words [2]: demonstrable fungicidal activity

AKRHHGYKRKF [peptide 118]
anti-fungal (fungicidal) activity, in words [2]: demonstrable fungicidal activity

AKRHHGYKRKFF [peptide 113-F12]
anti-bacterial activity, in words [1]: exhibit anti-fungal and anti-bacterial activity
anti-fungal (fungicidal) activity, in words [2]: exhibit anti-fungal and anti-bacterial activity

AKRHHKYHRKFH [peptide 113-K6H8]
anti-bacterial activity, in words [1]: exhibit anti-fungal and anti-bacterial activity
anti-fungal (fungicidal) activity, in words [2]: exhibit anti-fungal and anti-bacterial activity

AKRHHKYKRKFH [peptide 113-K6]
anti-bacterial activity, in words [1]: exhibit anti-fungal and anti-bacterial activity
anti-fungal (fungicidal) activity, in words [2]: exhibit anti-fungal and anti-bacterial activity

AKRLLGYKRKFL [peptide 113-L4.5.12]
anti-bacterial activity, in words [1]: exhibit anti-fungal and anti-bacterial activity
anti-fungal (fungicidal) activity, in words [2]: exhibit anti-fungal and anti-bacterial activity

AKRYYGYKRKFY [peptide 113-Y4.5.12]
anti-bacterial activity, in words [1]: exhibit anti-fungal and anti-bacterial activity
anti-fungal (fungicidal) activity, in words [2]: exhibit anti-fungal and anti-bacterial activity

AQRHHGYKRQFH [peptide 113-Q2.10]
anti-bacterial activity, in words [1]: exhibit anti-fungal and anti-bacterial activity
anti-fungal (fungicidal) activity, in words [2]: exhibit anti-fungal and anti-bacterial activity

Ac-AKRHHGYKRKFH
anti-bacterial activity, in words [1]: exhibit anti-fungal and anti-bacterial activity
anti-fungal (fungicidal) activity, in words [2]: exhibit anti-fungal and anti-bacterial activity

GYKRKFHEKHHSHRGYR [compound 102]
anti-fungal (fungicidal) activity, in words [2]: fungicidal activity comparable to that of histatin 5 and histatin-based peptide 113
P. gingivalis: % inhibition at 500 μM dose (scoring) ([3]; 500 μM dose, highest response seen used in the scoring): +++ (+++50-80%)

KRHHGYKRKFHEKHH [peptide 105]
anti-fungal (fungicidal) activity, in words [2]: fungicidal activity comparable to that of histatin 5 and histatin-based peptide 113

KRHHGYKRKFHEKHHSHR [peptide 103]
anti-fungal (fungicidal) activity, in words [2]: fungicidal activity comparable to that of histatin 5 and histatin-based peptide 113

KRHHGYKRKFHEKHHSHRGYR [peptide 101]
anti-fungal (fungicidal) activity, in words [2]: fungicidal activity comparable to that of histatin 5 and histatin-based peptide 113

peptide 117: subpeptide of peptide 113 (SEQ ID NO: 19) (KRHHGYKRKFH)
anti-fungal (fungicidal) activity, in words [2]: demonstrable fungicidal activity
